These are yes or no findings as the source states them, for the method shown. Binding seen in cells or lysates may run through a third protein. Some binding calls cover weakened binding; strength is not graded here.
Legend:
[1] = target: Telomere-protecting protein 1 (human (endogenous in MKN-45 and HGC-27)) (UniProt Q96AP0); assay: co-IP; endogenous proteins in lysates of MKN-45 or HGC-27 cells; indicated antibodies overnight at 4 °C, Protein G beads 2 h at 4 °C, Western blot; cells also treated with H. pylori, TPP1 overexpression (AAV-TPP1) or TPP1 knockdown (AAV-sh-TPP1)
[2] = target: 78 kDa glucose-regulated protein (human (endogenous in MKN-45 and HGC-27)) (UniProt P11021); assay: as above

Amino acid sequences for entries named in this document (tags omitted). Residues count along the entry.
UniProt Q96AP0: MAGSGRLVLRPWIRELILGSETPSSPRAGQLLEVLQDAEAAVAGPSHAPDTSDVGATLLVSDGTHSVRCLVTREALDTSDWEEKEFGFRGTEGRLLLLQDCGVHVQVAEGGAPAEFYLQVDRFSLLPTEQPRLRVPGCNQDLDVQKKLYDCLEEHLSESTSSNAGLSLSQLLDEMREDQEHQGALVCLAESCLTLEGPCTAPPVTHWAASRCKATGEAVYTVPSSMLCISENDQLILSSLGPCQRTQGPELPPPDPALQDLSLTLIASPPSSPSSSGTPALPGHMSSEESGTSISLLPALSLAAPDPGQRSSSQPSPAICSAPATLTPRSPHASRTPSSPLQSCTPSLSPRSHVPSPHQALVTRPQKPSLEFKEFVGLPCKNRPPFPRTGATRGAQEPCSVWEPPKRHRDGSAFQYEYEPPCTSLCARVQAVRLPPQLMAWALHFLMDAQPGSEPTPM
UniProt P11021, residues 19-654: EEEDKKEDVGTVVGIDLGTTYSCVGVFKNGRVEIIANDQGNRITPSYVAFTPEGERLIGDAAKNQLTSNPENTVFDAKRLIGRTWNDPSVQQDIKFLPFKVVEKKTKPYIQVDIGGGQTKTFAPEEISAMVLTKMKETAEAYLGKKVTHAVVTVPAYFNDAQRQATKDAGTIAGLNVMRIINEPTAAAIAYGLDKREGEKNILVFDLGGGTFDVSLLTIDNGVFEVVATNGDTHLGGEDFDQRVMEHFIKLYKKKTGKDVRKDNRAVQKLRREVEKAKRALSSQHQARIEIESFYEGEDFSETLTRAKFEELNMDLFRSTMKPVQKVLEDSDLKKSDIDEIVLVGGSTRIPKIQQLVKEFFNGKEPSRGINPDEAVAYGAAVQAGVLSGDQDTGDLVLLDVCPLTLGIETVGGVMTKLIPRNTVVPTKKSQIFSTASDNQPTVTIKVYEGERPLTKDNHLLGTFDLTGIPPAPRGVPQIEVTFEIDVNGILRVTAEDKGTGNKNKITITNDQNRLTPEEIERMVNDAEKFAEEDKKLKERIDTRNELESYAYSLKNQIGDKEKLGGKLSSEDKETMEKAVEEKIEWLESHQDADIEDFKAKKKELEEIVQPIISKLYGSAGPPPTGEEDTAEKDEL

Substance	binding [1]	binding [2]
78 kDa glucose-regulated protein (from UniProt P11021 19-654)	binds	
Telomere-protecting protein 1 (from UniProt Q96AP0 1-458)		binds

— paper PMC12795675
